These are yes or no findings as the source states them, for the method shown. In cells and extracts the contact can be indirect. Binding calls can cover weak binding; strength is not graded here. Tags and fused reporters may be left off the sequences shown. Each block holds one molecule with its values, some of them ahead of it.
Columns and labels:
Experiment in all cases: co-IP; HEK293 cells co-transfected; lysis in 50 mM Tris-HCl pH 7.5, 150 mM NaCl, 1% Triton X-100; IP with anti-Flag M2 affinity gel or anti-HA agarose; five washes in 50 mM Tris-HCl pH 7.5, 150 mM NaCl, 1 mM EDTA, 1% Triton X-100; immunoblot with anti-GFP, anti-Flag M2, anti-HA
[1] = biological target: T1, HA-ODR-8 (C. elegans Ufm1-specific protease 2) (C. elegans) (UniProt Q94218)
T1 sequence: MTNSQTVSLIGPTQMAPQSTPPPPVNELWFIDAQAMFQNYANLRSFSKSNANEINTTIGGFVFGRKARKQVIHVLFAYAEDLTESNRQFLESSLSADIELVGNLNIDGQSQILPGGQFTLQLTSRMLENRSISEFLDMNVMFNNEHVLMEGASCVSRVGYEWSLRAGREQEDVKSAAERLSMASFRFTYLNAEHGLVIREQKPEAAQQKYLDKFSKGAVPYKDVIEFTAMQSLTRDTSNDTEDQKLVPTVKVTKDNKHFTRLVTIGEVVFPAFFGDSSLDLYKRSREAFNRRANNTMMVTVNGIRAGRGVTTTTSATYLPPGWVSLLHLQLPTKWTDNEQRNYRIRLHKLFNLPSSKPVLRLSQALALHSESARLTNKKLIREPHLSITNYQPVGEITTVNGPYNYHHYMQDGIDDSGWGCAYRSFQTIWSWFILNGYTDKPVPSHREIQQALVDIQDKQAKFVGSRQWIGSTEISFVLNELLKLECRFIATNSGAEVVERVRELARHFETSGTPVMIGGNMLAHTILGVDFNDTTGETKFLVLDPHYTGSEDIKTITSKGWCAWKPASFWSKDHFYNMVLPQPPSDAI

Protein sequences, listed by entry. Tags and fused reporters are not part of them. Lines headed by an entry give the natural chain unless they say otherwise; changes in a name come on top.
UniProt Q8I7F8: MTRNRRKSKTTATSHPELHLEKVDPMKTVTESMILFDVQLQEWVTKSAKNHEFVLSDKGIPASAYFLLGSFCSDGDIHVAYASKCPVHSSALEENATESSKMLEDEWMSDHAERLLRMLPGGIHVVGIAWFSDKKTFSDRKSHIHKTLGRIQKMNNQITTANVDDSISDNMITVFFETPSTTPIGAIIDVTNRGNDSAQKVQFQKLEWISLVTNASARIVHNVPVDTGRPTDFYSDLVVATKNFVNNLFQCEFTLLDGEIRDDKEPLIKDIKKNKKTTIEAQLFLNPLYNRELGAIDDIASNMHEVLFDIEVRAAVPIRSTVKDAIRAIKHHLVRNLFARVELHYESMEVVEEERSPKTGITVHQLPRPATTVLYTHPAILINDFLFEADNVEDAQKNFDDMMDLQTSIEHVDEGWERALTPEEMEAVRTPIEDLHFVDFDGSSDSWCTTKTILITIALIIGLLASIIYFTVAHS

ODR-4a-FLAG (C. elegans) = ODR-4a-FLAG (C. elegans) (UniProt Q8I7F8)
ODR-4b-FLAG (C. elegans) = biological target: ODR-4b-FLAG (C. elegans)

binding [1]: binds
Molecule: ODR-4a-FLAG (from UniProt Q8I7F8-2)

binding [1]: binds
Molecule: ODR-4b-FLAG (C. elegans)

binding (ODR-4a-FLAG (C. elegans)): binds
binding (ODR-4b-FLAG (C. elegans)): binds
B1: HA-ODR-8 (C. elegans Ufm1-specific protease 2) (enzyme, UniProt Q94218 1-589)
chain: T1 sequence

— article PMC3945108
